# Data as given in PubChem BioAssay AID540276 (National Center for Advancing Translational Sciences (NCATS), 2011).
# Hit rate of the full screen: of about 300,000 compounds, about 5,400 (1.8%) were called active. The inconclusive results got no clear call from the source; some entries with a clear call stand among them for comparison. Calls come from the whole dose curve; tested in HEK293 cells. Potencies beside an inconclusive call are fits to weak or partial responses and may not hold up.
# Experiment: qHTS for inhibitors of binding or entry into cells for Marburg Virus
# Details: Marburg virus pseudotyped entry inhibition, cell reporter; series mostly up to 37.8 µM
# Potency is the fitted concentration of half-maximal effect.
row,SMILES,Potency
1,COc1ccc(C(=O)Nc2cc(C(C)C)c(O)c(S(=O)(=O)c3ccc(Cl)cc3)c2C)cc1,"inconclusive: 35.5 µM [activator, single point]"
2,CC(C(=O)Nc1ccc(OCc2ccccc2)cc1)N1CCCC1 (stereo unspecified),"inconclusive: 5.62 µM [activator, single point]"
3,O=C(NC(=S)NN1CCCCC1c1cccnc1)c1ccc(Br)cc1 (stereo unspecified),inactive
4,O=C(CCN1CCCCC1)NCC(=O)Nc1ccc(Br)cc1C(=O)c1ccccc1,"inconclusive: 9.2 µM [inhibitor, partial curve]"
5,Cc1ccc(C(OCCN(C)C)c2cccc(C(F)(F)F)c2)cc1 (stereo unspecified),active: 20.6 µM
6,COc1cc(/C=C(\C#N)C(=O)Nc2cccc(C(=O)O)c2)ccc1OCc1ccc(Cl)cc1,"inconclusive: 31.6 µM [inhibitor, single point]"
7,O=C1CC(c2ccccc2)Sc2nc(-c3ccc(F)cc3)nn21 (stereo unspecified),inactive
8,CCc1ccc(CN2CCC(Oc3ccc(C(=O)N4CCCCC4)cc3)CC2)cc1,"inconclusive: 12.6 µM [inhibitor, single point]"
9,CCCCc1ccc(NC(=S)N2CCCC(C)C2)cc1 (stereo unspecified),"inconclusive: 3.16 µM [activator, single point]"
10,O=S(=O)(Nc1ccccc1N1CCCCC1)c1ccc(F)cc1,"inconclusive: 0.316 µM [inhibitor, partial curve, poor fit]"
11,Cc1nc2ccccc2c(=O)n1NC(=O)/C=C/c1ccccc1,"inconclusive: 35.5 µM [inhibitor, partial curve, poor fit]"
12,CNCCCOc1ccc(Cl)cc1C(C)(C)C,"inconclusive: 25.1 µM [inhibitor, single point]"
13,CCCCN(CCCNC(=O)c1ccc2nc(N3CCOCC3)sc2c1)Cc1ccccc1,"inconclusive: 18.3 µM [inhibitor, partial curve, poor fit]"
14,CNC(=O)c1ccsc1NC(=O)c1ccc2c(c1)CCCC2,"inconclusive: 6.51 µM [activator, single point]"
15,O=C(O)CCNC(=O)c1ccc(NC(=O)Cc2ccc(Cl)cc2)cc1,"inconclusive: 0.631 µM [activator, full curve, poor fit]"
16,CCC(CC)NC(=O)/C=C/c1ccccc1Cl,"inconclusive: 1 µM [inhibitor, full curve, poor fit]"
17,CC(C)Sc1nc2c(c(=O)[nH]c(=O)n2C)n1Cc1ccccc1,inactive
18,Cc1ccc(CN(CC(=O)NC(C)(C)C)C(=O)CNC(=O)c2cccs2)cc1,"inconclusive: 8.91 µM [inhibitor, partial curve, poor fit]"
19,CC(=O)Nc1ccc(S(=O)(=O)NC(CC(=O)NCCc2ccccc2)C(C)C)cc1 (stereo unspecified),"inconclusive: 23.1 µM [activator, single point]"
20,CN(CC(=O)Nc1nc2ccccc2s1)S(=O)(=O)c1ccc(Br)cc1,inactive
21,Cc1cc2cc(CNC(=O)Cc3ccc([N+](=O)[O-])cc3)ccc2n1C,"inconclusive: 8.91 µM [inhibitor, partial curve, poor fit]"

row,SMILES,Potency
1,O=C(CCc1nc(-c2ccccc2)no1)NCCc1ccccc1,"inconclusive: 32.6 µM [activator, single point]"
2,CCC1CCCCN1CCCNC(=O)c1ccc2c(c1)N(Cc1ccccc1)C(=O)c1ccccc1S2(=O)=O (stereo unspecified),"inconclusive: 17.8 µM [inhibitor, single point]"
3,COc1ccc(-n2c(Cc3cccn3C)nnc2SCC(=O)Nc2ccc(F)cc2)cc1,"inconclusive: 20.6 µM [inhibitor, single point]"
4,CCn1ccnc1CN(C)C(=O)c1cc(COc2ccc(OC)c3ccccc23)on1,inactive
5,O=C(CC1SC(=Nc2ccccc2)N(CCc2c[nH]c3ccccc23)C1=O)Nc1ccccc1F (stereo unspecified),"inconclusive: 20 µM [inhibitor, partial curve, poor fit]"
6,CCN(C(=O)CN1C(=O)CN(C)C1=O)c1cccc2ccccc12,inactive
7,CCOC(=O)C1=C(COC(=O)/C=C/c2ccc(SC)cc2)NC(=O)NC1C (stereo unspecified),"inconclusive: 2 µM [inhibitor, full curve, poor fit]"
8,O=C(CCc1nnc(C2(c3ccc(Cl)cc3)CCC2)o1)NC1CC1,"inconclusive: 0.562 µM [activator, full curve, poor fit]"
9,CC(C)(C)NC(=O)CSc1nc2ccc(NC(=O)CSc3nnnn3Cc3ccccc3)cc2s1,active: 8.91 µM
10,O=C(CCN1C(=O)S/C(=C\c2ccccc2)C1=O)Nc1ccc(S(=O)(=O)Nc2nccs2)cc1,inactive
11,C=CCNC(=S)N/N=C/c1ccc(C)cc1C,"inconclusive: 8.91 µM [inhibitor, partial curve, poor fit]"
12,Nc1c(C(=O)c2cccs2)sc2nsc(SCCN3CCCCC3)c12,"inconclusive: 3.55 µM [activator, single point]"
13,N/C(=N\OC(=O)Cc1ccccc1)c1ccc([N+](=O)[O-])cc1,inactive
14,COc1cc(NS(=O)(=O)c2ccc(Nc3nc(-c4cccc([N+](=O)[O-])c4)cs3)cc2)nc(OC)n1,inactive
15,N#Cc1c2c(c(NCCCN3CCOCC3)n3c1nc1ccccc13)CCC2,"inconclusive: 1.64 µM [inhibitor, partial curve, poor fit]"
16,Cc1ccc(-c2noc(CSc3nnc(-c4ccncc4)n3-c3ccc(F)cc3)n2)cc1,"inconclusive: 29.1 µM [inhibitor, single point]"
17,CCN(C(=O)c1cc2c(=O)oc3ccc(C)cc3c2s1)c1cc(OC)ccc1OC,"inconclusive: 6.31 µM [inhibitor, single point]"
18,Cc1cccc(N(Cc2ccccc2)C(=O)c2ccccc2F)c1,"inconclusive: 10 µM [inhibitor, partial curve, poor fit]"
19,O=c1[nH]c(NC2CCCCC2)c([N+](=O)[O-])c(=O)[nH]1,"inconclusive: 0.0891 µM [activator, full curve, poor fit]"
20,Nc1nonc1C(=O)N/N=C/c1cc(Br)ccc1O,"inconclusive: 4.47 µM [inhibitor, single point]"

# Reformatted with bars between the fields: part of the list above.
row | SMILES | Potency
11 | C=CCNC(=S)N/N=C/c1ccc(C)cc1C | inconclusive: 8.91 µM [inhibitor, partial curve, poor fit]
12 | Nc1c(C(=O)c2cccs2)sc2nsc(SCCN3CCCCC3)c12 | inconclusive: 3.55 µM [activator, single point]
13 | N/C(=N\OC(=O)Cc1ccccc1)c1ccc([N+](=O)[O-])cc1 | inactive
